Data taken from US11291683B2, “Bilayer tablets of B vitamins and process for preparing the same” (Access Business Group International LLC, priority 2016, dated 2022).
Some of these results come from one statement about several compounds together.

Assay: Dissolution of bilayer time release multi-B vitamin tablets, USP Apparatus 2 (paddle), HPLC
Type: physicochemical
Conditions: dual-release bi-layer tablet, in vitro dissolution
Experimental: To investigate the effect of basic yeast on the dissolution profile of folic acid from vitamin B time release tablet, five formulas (Table 2) with different amounts of yeast were tested. The amount of yeast in the modified release layer was kept constant at 30 mg and included at least 15% hydroxypropyl methylcellulose (which acts as a controlled-release polymer).
Dissolution testing was performed using a qualified Sotax dissolution tester operated as USP Apparatus 2 (paddle) at 75 rpm and at 37±0.5° C. The media used for dissolution was different for different B vitamins and was selected to minimize degradation of these vitamins for the length of the study i.e. 8 hours. Each dissolution test was performed with 6 tablets. Sample aliquots were collected at 2, 4, 6, and 8 hour and filtered through 0.45-μm Millex-HV syringe filters, and analyzed by HPLC for dissolution samples.

Compound | time over which vitamin is released from the bi-layer tablet [h]
cyanocobalamin [Formulation B12] | ≤ 1
Cc1cc2nc3c(=O)[nH]c(=O)nc-3n(C[C@H](O)[C@H](O)[C@H](O)CO)c2cc1C [Riboflavin (B2), riboflavin] | ≤ 1
